Record: PubChem BioAssay AID720505 (Drosophila RNAi Screening Center, 2013)

Test: 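Fly regulators or components of the CRAC channel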 (primary screen)
Cells: Drosophila S2R+ cells
Knock-down reagent: long dsRNA against Drosophila genes
Treatment: thapsigargin (2 µM) in calcium-free buffer to empty internal stores, then 2 mM calcium added back
Read-out: 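Fluo-4 signal in 384-well plates read on a FLIPR after thapsigargin (2 µM, calcium-free) store depletion and 2 mM calcium add-back; unnormalised mean endpoint per well; screen run twice, selected wells retested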
Direction: calcium signal and retest calcium signal: higher = more calcium entry after store depletion
Rule for the call: 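Knock-downs counted as hits when calcium entry dropped relative to STIM1 positive and Rho1 negative controls present on each plate; roughly 1500 genes called, with reductions of differing size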
Calls: active = called as lowering calcium entry; inactive = not called
The screen tested about 20,000 reagents; shown is a random part of those that have a named target and a result. Over the whole deposit, about 2,100 (10%) got an active call. 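Raw plate signals without normalisation; calls rest on control-based scores that were not deposited; replicate 2 separates called from uncalled poorly.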 A plus sign joins genes that one reagent is predicted to hit. Not stated in the record: the amount of reagent, the time to read-out.

Which result is listed for CG14253 [DRSC14748]?
calcium signal, replicate 1: 173; calcium signal, replicate 2: 131; Call: inactive

With Cdc2rk [DRSC07590], what was measured?
calcium signal, replicate 1: 91.2; calcium signal, replicate 2: 99.4; Call: inactive

What did the screen give for HINT1 [DRSC00548]?
calcium signal, replicate 1: 223; calcium signal, replicate 2: 167; Call: inactive

What is on record for EloA [DRSC16109]?
calcium signal, replicate 1: 173; calcium signal, replicate 2: 347; Call: inactive

With ValRS [DRSC06864], how do the results read?
calcium signal, replicate 1: 164; calcium signal, replicate 2: 144; Call: inactive

For BCL7-like [DRSC17729], how do the results read?
calcium signal, replicate 1: 130; calcium signal, replicate 2: 144; Call: inactive

For brv2 [DRSC10226], what was measured?
calcium signal, replicate 1: 71.7; calcium signal, replicate 2: 143; Call: inactive

Which result is listed for mrva [DRSC11009]?
calcium signal, replicate 1: 109; calcium signal, replicate 2: 73.3; retest calcium signal, replicate 1: 159; retest calcium signal, replicate 2: 139; Call: inactive

For mrva [DRSC21842], what was measured?
calcium signal, replicate 1: 68.2; calcium signal, replicate 2: 112; Call: inactive

With Nup75 [DRSC06947], how do the results read?
calcium signal, replicate 1: 124; calcium signal, replicate 2: 105; Call: inactive

Which result is listed for CG12523 [DRSC09895]?
calcium signal, replicate 1: 77.8; calcium signal, replicate 2: 75.7; retest calcium signal, replicate 1: 5479; retest calcium signal, replicate 2: 72.4; Call: inactive

Which result is listed for CG5577 [DRSC10519]?
calcium signal, replicate 1: 106; calcium signal, replicate 2: 83.4; Call: inactive

For sle [DRSC14557], what does the deposit list?
calcium signal, replicate 1: 67.2; calcium signal, replicate 2: 101; Call: active

With Pvf1 [DRSC20024], what was measured?
calcium signal, replicate 1: 152; calcium signal, replicate 2: 113; Call: inactive

What is on record for Spt7 [DRSC19997]?
calcium signal, replicate 1: 147; calcium signal, replicate 2: 102; Call: inactive

With CG3355 [DRSC00598], what does the deposit list?
calcium signal, replicate 1: 102; calcium signal, replicate 2: 127; Call: inactive

Which result is listed for CG11147 [DRSC02129]?
calcium signal, replicate 1: 108; calcium signal, replicate 2: 103; Call: inactive

For Orc6 [DRSC07497], what does the deposit list?
calcium signal, replicate 1: 122; calcium signal, replicate 2: 221; Call: inactive

With CG31820 [DRSC21318], how do the results read?
calcium signal, replicate 1: 86.2; calcium signal, replicate 2: 85; Call: inactive

What did the screen give for rad50 [DRSC04523]?
calcium signal, replicate 1: 140; calcium signal, replicate 2: 81.8; Call: inactive

What is on record for CG31751 [DRSC02464]?
calcium signal, replicate 1: 62.4; calcium signal, replicate 2: 123; Call: inactive

How did the screen score CG31751 [DRSC02465]?
calcium signal, replicate 1: 129; calcium signal, replicate 2: 74.6; Call: inactive

With CG31274 + MESK4 [DRSC13202], what was measured?
Call: inactive

With smg [DRSC11397], how do the results read?
calcium signal, replicate 1: 98.3; calcium signal, replicate 2: 104; Call: inactive

For CG4586 [DRSC18373], how do the results read?
calcium signal, replicate 1: 178; calcium signal, replicate 2: 124; Call: inactive

With CG15414 [DRSC00429], what was measured?
calcium signal, replicate 1: 157; calcium signal, replicate 2: 86.4; Call: inactive

With CG15414 [DRSC22353], how do the results read?
calcium signal, replicate 1: 128; calcium signal, replicate 2: 254; Call: inactive

What did the screen give for CG6908 [DRSC16131]?
calcium signal, replicate 1: 165; calcium signal, replicate 2: 118; Call: inactive

2 successive entries from above, for reference:
CG15414 [DRSC00429] — calcium signal, replicate 1: 157; calcium signal, replicate 2: 86.4; Call: inactive
CG15414 [DRSC22353] — calcium signal, replicate 1: 128; calcium signal, replicate 2: 254; Call: inactive
